The results in this text go back to patent US5466858A, “Method of producing straight-chain acrylonitrile dimers” (priority 1993, dated 1995).

Read-outs that look alike come from different tables or passages of the source.

The nature of data set [1]: dimerization of acrylonitrile with ruthenium catalyst in presence of straight-chain dimer selectivity-enhancing agent (Table 2). To be noted: 7.66 millimole agent, 150° C., 6 hours, sodium propionate; for Propionitrile selectivity / β-cyano-ethyl carboxylate selectivity: by-product.
The conditions of data set [2]: 7.66 millimole agent, 150° C., 6 hours, sodium carbonate; for Propionitrile selectivity / β-cyano-ethyl carboxylate selectivity: by-product.

Turning to `Cc1ccc(C(=O)O)s1` [5-Methyl-2-thiophene carboxylic acid], in data set [1], the Acrylonitrile conversion was 11%, the Straight-chain dimer selectivity turned out to be 86%, the Propionitrile selectivity was found to be 3% and the β-cyano-ethyl carboxylate selectivity was found to be 6%.

In data set [2], `Cc1cccc(C(=O)O)c1` [m-methylbenzoic acid, reference compound] displayed an Acrylonitrile conversion of 12%.

In data set [2], `O=C(O)c1ccccc1` [benzoic acid, reference compound] registered an Acrylonitrile conversion of 12%.

Take `O=C(O)c1ccco1` [2-Furancarboxylic acid]: in data set [1], the Acrylonitrile conversion was found to be 19%, the Straight-chain dimer selectivity is 86%, the Propionitrile selectivity turned out to be 3% and the β-cyano-ethyl carboxylate selectivity came out at 6%.

In data set [2], `O=C(O)c1ccccc1-c1ccccc1` [o-phenylbenzoic acid] yielded an Acrylonitrile conversion of 17%, a Straight-chain dimer selectivity of 82%, a Propionitrile selectivity of 3% and a β-cyano-ethyl carboxylate selectivity of 11%.

In data set [2], `O=C(O)c1ccc(Cl)c(Cl)c1` [3,4-dichlorobenzoic acid] came in with an Acrylonitrile conversion of 17%, a Straight-chain dimer selectivity of 82%, a Propionitrile selectivity of 3% and a β-cyano-ethyl carboxylate selectivity of 11%.

As to `O=C(O)c1cccc(Cl)c1` [m-chlorobenzoic acid], in data set [2], the Acrylonitrile conversion is given as 17%, the Straight-chain dimer selectivity came to 80%, the Propionitrile selectivity turned out to be 3% and the β-cyano-ethyl carboxylate selectivity is listed as 12%.

In data set [2], `O=C(O)c1ccccc1C(=O)c1ccccc1` [o-benzoylbenzoic acid] gave an Acrylonitrile conversion of 18%.

`O=C(O)c1cccc(C(F)(F)F)c1` [m-trifluoromethylbenzoic acid]: in data set [2], the Acrylonitrile conversion stood at 13%, the Straight-chain dimer selectivity is 82%, the Propionitrile selectivity was found to be 3% and the β-cyano-ethyl carboxylate selectivity is 9%.

In the case of `COc1ccccc1C(=O)O` [o-methoxybenzoic acid], in data set [2], the Acrylonitrile conversion worked out at 9%, the Straight-chain dimer selectivity stood at 81%, the Propionitrile selectivity was 8% and the β-cyano-ethyl carboxylate selectivity was found to be 6%.

As to `O=C(O)c1c(F)cccc1F` [2,6-difluorobenzoic acid], in data set [2], the Acrylonitrile conversion is recorded as 10%, the Straight-chain dimer selectivity is 68%, the Propionitrile selectivity stood at 3% and the β-cyano-ethyl carboxylate selectivity is recorded as 9%.

In data set [2], `O=C(O)c1c(Cl)cccc1Cl` [2,6-dichlorobenzoic acid] had an Acrylonitrile conversion of 12%, a Straight-chain dimer selectivity of 78%, a Propionitrile selectivity of 3% and a β-cyano-ethyl carboxylate selectivity of 13%.

For the compound `CC(=O)c1ccc(C(=O)O)cc1` [p-acetylbenzoic acid], in data set [2], the Acrylonitrile conversion was found to be 15%, the Straight-chain dimer selectivity was 78%, the Propionitrile selectivity was found to be 3% and the β-cyano-ethyl carboxylate selectivity was 14%.

For `O=C(O)[C@@H]1CCCN1C(=O)OCc1ccccc1` [N-Carbobenzyloxyproline], in data set [1], the Acrylonitrile conversion is on record as 19%, the Straight-chain dimer selectivity is 86%, the Propionitrile selectivity was 3% and the β-cyano-ethyl carboxylate selectivity stood at 6%.

Consider `O=C(O)Cc1cccs1` [2-Thiophene acetic acid], for which, in data set [1], the Acrylonitrile conversion stood at 11%, the Straight-chain dimer selectivity is reported as 68%, the Propionitrile selectivity stood at 3% and the β-cyano-ethyl carboxylate selectivity is on record as 6%.

In the case of `O=C(O)c1cccs1` [2-Thiophene carboxylic acid], in data set [1], the Acrylonitrile conversion was 20%, the Straight-chain dimer selectivity worked out at 86%, the Propionitrile selectivity was 3% and the β-cyano-ethyl carboxylate selectivity came to 6%.

`O=C(O)c1ccccc1Br` [o-bromobenzoic acid] had an Acrylonitrile conversion in data set [2] of 12%.

As for `CNc1ccccc1C(=O)O` [N-methylanthranilic acid], in data set [2], the Acrylonitrile conversion is listed as 17%, the Straight-chain dimer selectivity is given as 83%, the Propionitrile selectivity was 3% and the β-cyano-ethyl carboxylate selectivity amounted to 8%.

For the compound `CC(NC(=O)OCc1ccccc1)C(=O)O` (centres unmarked) [N-Carbozenzyloxyalanine], in data set [1], the Acrylonitrile conversion is on record as 9%, the Straight-chain dimer selectivity amounted to 75%, the Propionitrile selectivity was determined as 3% and the β-cyano-ethyl carboxylate selectivity is given as 15%.

Take `N#Cc1cccc(C(=O)O)c1` [m-cyanobenzoic acid]: in data set [2], the Acrylonitrile conversion worked out at 13%, the Straight-chain dimer selectivity is given as 70%, the Propionitrile selectivity came to 3% and the β-cyano-ethyl carboxylate selectivity is recorded as 22%.

In data set [2], `O=C(O)c1ccccc1F` [o-fluorobenzoic acid] displayed an Acrylonitrile conversion of 18%, a Straight-chain dimer selectivity of 83%, a Propionitrile selectivity of 3% and a β-cyano-ethyl carboxylate selectivity of 9%.

As for `O=C(O)c1ccccc1Cl` [o-chlorobenzoic acid], the Acrylonitrile conversion in data set [2] is 17%.

As for `O=C(O)CNC(=O)OCc1ccccc1` [N-Carbobenzyloxyglicine], in data set [1], the Acrylonitrile conversion is given as 7%, the Straight-chain dimer selectivity is recorded as 72%, the Propionitrile selectivity was determined as 3% and the β-cyano-ethyl carboxylate selectivity stood at 17%.

In data set [2], `O=C(O)c1c(F)c(F)c(F)c(F)c1F` [pentafluorobenzoic acid, reference compound] gave an Acrylonitrile conversion of 8%, a Straight-chain dimer selectivity of 10%, a Propionitrile selectivity of 10% and a β-cyano-ethyl carboxylate selectivity of 0%.

In data set [2], `CC(=O)c1ccccc1C(=O)O` [o-acetylbenzoic acid] registered an Acrylonitrile conversion of 15%, a Straight-chain dimer selectivity of 77%, a Propionitrile selectivity of 3% and a β-cyano-ethyl carboxylate selectivity of 15%.

In data set [2], `Nc1ccccc1C(=O)O` [Anthranilic acid] showed an Acrylonitrile conversion of 11%, a Straight-chain dimer selectivity of 85%, a Propionitrile selectivity of 3% and a β-cyano-ethyl carboxylate selectivity of 7%.
